Values from PubChem BioAssay AID504744 (Drosophila RNAi Screening Center, 2011)
The screen tested about 23,000 reagents; this is a random part of those with a known target gene and a result. Of all reagents, 98 (0.43%) got an active call. 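Only hit calls are given; the phospho-dAkt signals, z-scores and hit direction were not deposited.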 A plus sign joins genes that one reagent is predicted to hit. Reagent sequences are not shown.

Aim: 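Identify dsRNAs that increase or decrease phospho-dAkt after insulin treatment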 (primary screen)
Cells: Drosophila Kc167 cells
Knock-down reagent: long dsRNA against Drosophila genes, 250 ng dsRNA per well of a 384-well plate
Duration: 3 days of knock-down, then overnight serum-free starvation before stimulation
Conditions: bovine insulin at 387 nM for 10 minutes after 12 h without serum
Measurement: 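In-cell antibody fluorescence for phospho-dAkt in each well over DNA-dye signal, with log2 residuals expressed as z-scores adjusted for cell count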
Active means: 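Hit in the insulin screen when the two-replicate mean z-score is more extreme than plus or minus 2.5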

no.	gene knocked down	dsRNA	Outcome
1	alphaTub67C (alpha-Tubulin at 67C)	DRSC11321	inactive
2	CG14907 + Mettl4	DRSC15026	inactive
3	CG14907 + Mettl4	DRSC15027	inactive
4	Aef1 (Adult enhancer factor 1)	DRSC11605	inactive
5	CG13771	DRSC02277	inactive
6	Met75Ca + Met75Cb	DRSC09549	inactive
7	Met75Ca + Met75Cb	DRSC11221	inactive
8	CG13590	DRSC04226	inactive
9	CG3408	DRSC10360	inactive
10	Fdx1 (Ferredoxin 1)	DRSC11167	inactive
11	Erk7 (Extracellularly regulated kinase 7)	DRSC18127	inactive
12	Erk7 (Extracellularly regulated kinase 7)	DRSC18227	inactive
13	Erk7 (Extracellularly regulated kinase 7)	DRSC21895	inactive
14	CG2145	DRSC19835	inactive
15	ATbp ((A+T)-stretch binding protein)	DRSC20906	inactive
16	e(y)2 (enhancer of yellow 2)	DRSC19640	inactive
17	ACXB (Adenylyl cyclase X B)	DRSC00845	inactive
18	Snx27 (Sorting nexin 27)	DRSC17786	inactive
19	Snx27 (Sorting nexin 27)	DRSC18282	inactive
20	Snx27 (Sorting nexin 27)	DRSC18284	inactive
21	sws (swiss cheese)	DRSC18843	inactive
22	CG31600	DRSC22541	inactive
23	CG14820	DRSC10191	inactive
24	CG11362	DRSC04106	inactive
25	CG11362	DRSC22032	inactive
26	ND5 (retired record)	DRSC21281	inactive
27	Vps24 (Vacuolar protein sorting 24)	DRSC12332	inactive
28	CG31549	DRSC21688	inactive
29	Cyp6w1 (Cytochrome P450 6w1)	DRSC04909	inactive
30	CG13108	DRSC02206	inactive
31	CG14459	DRSC11719	inactive
32	CG14893	DRSC15015	inactive
33	Saf-B (Scaffold attachment factor B)	DRSC16167	inactive
34	Odc1 (Ornithine decarboxylase 1)	DRSC07482	inactive
35	Poxn (Pox neuro)	DRSC05589	inactive
36	Poxn (Pox neuro)	DRSC07512	inactive
37	CG15536	DRSC15072	inactive
38	CG15536	DRSC22844	inactive
39	Obp59a (Odorant-binding protein 59a)	DRSC04160	inactive
40	Doa (Darkener of apricot)	DRSC13892	inactive
41	Doa (Darkener of apricot)	DRSC13893	inactive
42	Doa (Darkener of apricot)	DRSC13895	inactive
43	Doa (Darkener of apricot)	DRSC13896	inactive
44	Doa (Darkener of apricot)	DRSC13897	inactive
45	Doa (Darkener of apricot)	DRSC16650	inactive
46	pHCl-1 (pH-sensitive chloride channel 1)	DRSC09401	inactive
47	pHCl-1 (pH-sensitive chloride channel 1)	DRSC09991	inactive
48	pHCl-1 (pH-sensitive chloride channel 1)	DRSC10589	inactive
49	CG11617	DRSC00321	inactive
50	CG11617	DRSC21786	inactive
51	CG18810	DRSC02701	inactive
52	CG17167	DRSC20902	inactive
53	CG17167	DRSC20903	inactive
54	Mer (Merlin)	DRSC20259	inactive
55	cher (cheerio)	DRSC16924	inactive
56	CG14483	DRSC06455	inactive
57	Fie (Fire exit)	DRSC08158	inactive
58	UQCR-Q (Ubiquinol-cytochrome c reductase ubiquinone-binding protein)	DRSC10886	inactive
59	dsh (dishevelled)	DRSC19803	inactive
60	CG11951	DRSC14442	inactive
61	ash1 (absent, small, or homeotic discs 1)	DRSC11325	inactive
62	CG15701	DRSC06572	inactive
63	CG9861	DRSC04576	inactive
64	CG2811	DRSC04318	inactive
65	Dap160 (Dynamin associated protein 160)	DRSC03313	inactive
66	Daxx (Daxx-like protein)	DRSC03255	inactive
67	His2Av (Histone H2A variant)	DRSC16702	inactive
68	Eig71Ee (Ecdysone-induced gene 71Ee)	DRSC11152	inactive
69	Rh2 (Rhodopsin 2)	DRSC16821	inactive
70	CG42570	DRSC09391	inactive
71	CG13747	DRSC06418	inactive
72	Abd-B (Abdominal B)	DRSC14098	inactive
73	Abd-B (Abdominal B)	DRSC14337	inactive
74	opm (opossum)	DRSC20141	inactive
75	opm (opossum)	DRSC22135	inactive
76	Tgi (Tondu-domain-containing Growth Inhibitor)	DRSC09793	inactive
77	Tgi (Tondu-domain-containing Growth Inhibitor)	DRSC09794	inactive
78	CG31781 (retired record)	DRSC02431	inactive
79	CG31781 (retired record)	DRSC02432	inactive
80	CG12546 + CG14452	DRSC11709	inactive
81	His2B:CG33870 + His2B:CG33868 + His2B:CG33882 + 21 more	DRSC03757	inactive
82	CG13033	DRSC09913	inactive
83	CG17298	DRSC15221	inactive
84	Ppr-Y	DRSC20892	inactive
85	SamDC (S-adenosylmethionine decarboxylase)	DRSC03429	inactive
86	CG9328	DRSC03203	inactive
87	Nup35 (Nucleoporin 35kDa)	DRSC19999	inactive
88	Oli (Olig family)	DRSC02866	inactive
89	CG14370	DRSC14832	inactive
90	CG13954	DRSC06442	inactive
91	BicD (Bicaudal D)	DRSC02006	inactive
92	Ir40a (Ionotropic receptor 40a)	DRSC03732	inactive
93	Ir40a (Ionotropic receptor 40a)	DRSC03733	inactive
94	Kr (Kruppel)	DRSC04622	inactive
95	CG14615	DRSC20627	inactive
96	Chd3	DRSC11114	inactive
97	CtsL2 (Cathepsin L2)	DRSC06978	inactive
98	CG31204	DRSC15106	inactive
99	pzg (putzig)	DRSC11848	inactive
100	Adsl (Adenylosuccinate lyase)	DRSC15500	inactive
101	MED20 (Mediator complex subunit 20)	DRSC03463	inactive
102	Rab40	DRSC19820	inactive
103	Zip89B (Zinc/iron regulated transporter-related protein 89B)	DRSC16128	inactive
104	Leash	DRSC15617	inactive
105	CG4741	DRSC04485	inactive
106	mRpS26 (mitochondrial ribosomal protein S26)	DRSC10823	inactive
107	CG9377	DRSC03217	inactive
108	Obp83ef (Odorant-binding protein 83ef)	DRSC12268	inactive
109	TotA (Turandot A)	DRSC13448	inactive
110	stwl (stonewall)	DRSC11400	inactive
111	CG30355	DRSC21958	inactive
112	Fum2 (Fumarase 2)	DRSC18345	inactive
113	unpg (unplugged)	DRSC07713	inactive
114	RpL6 (Ribosomal protein L6)	DRSC14323	inactive
115	RpL6 (Ribosomal protein L6)	DRSC22384	inactive
116	CG31262	DRSC13216	inactive
117	Apoltp (Apolipoprotein lipid transfer particle)	DRSC02508	inactive
118	Gr94a (Gustatory receptor 94a)	DRSC13597	inactive
119	CG42382	DRSC07671	inactive
120	CG34396	DRSC04245	inactive
121	CG34396	DRSC04246	inactive
122	CG11168	DRSC14292	inactive
123	Pvf1 (PDGF- and VEGF-related factor 1)	DRSC20024	inactive
124	Tsp42A (Tetraspanin 42A)	DRSC04862	inactive
125	mRRF2 (mitochondrial ribosome recycling factor 2)	DRSC16143	inactive
126	Cyp40 (Cyclophilin 40)	DRSC10980	inactive
127	otu (ovarian tumor)	DRSC18811	inactive
128	Reck (Reversion-inducing-cysteine-rich protein with kazal motifs)	DRSC10504	inactive
129	Reck (Reversion-inducing-cysteine-rich protein with kazal motifs)	DRSC10505	inactive
130	CG16903	DRSC18561	inactive
131	Kah (Kahuli)	DRSC07887	inactive
132	Kah (Kahuli)	DRSC08515	inactive
133	Art7 (Arginine methyltransferase 7)	DRSC04588	inactive
134	Fim (Fimbrin)	DRSC20243	inactive
135	Orp8 (Oxysterol-binding protein-related protein 8)	DRSC15110	inactive
136	Orp8 (Oxysterol-binding protein-related protein 8)	DRSC15712	inactive
137	Lip2 (Lipase 2)	DRSC02577	inactive
138	Lip2 (Lipase 2)	DRSC02578	inactive
139	CG30098	DRSC05605	inactive
140	Muc18B (Mucin 18B)	DRSC20064	inactive
141	Muc18B (Mucin 18B)	DRSC21644	inactive
142	G9a	DRSC18619	inactive
143	CG12118	DRSC17813	inactive
144	na (narrow abdomen)	DRSC19639	inactive
145	GrlHz (Gustatory receptor-like Holozoa)	DRSC04424	inactive
146	CG11396	DRSC11654	inactive
147	RNaseX25 (Ribonuclease X25)	DRSC11259	inactive
148	CG10984	DRSC09817	inactive
149	AANATL6 (Arylalkylamine N-acetyltransferase-like 6)	DRSC06773	inactive
150	CG17195	DRSC15188	inactive
151	CG32119	DRSC09248	inactive
152	CG32119	DRSC21462	inactive
153	CG3708	DRSC18646	inactive
154	CG13360	DRSC18536	inactive
155	Cyp6d5 (Cytochrome P450 6d5)	DRSC16634	inactive
156	fd59A (forkhead domain 59A)	DRSC04685	inactive
157	Prosbeta5 (Proteasome beta5 subunit)	DRSC07517	inactive
